Reference: PMC8110579
These are yes or no findings as the source states them, for the method shown. Binding seen in cells or lysates may run through a third protein. Some results given as binding are weak or reduced against the parent protein; the word gives no strength. For part of these data: Tags and fused reporters may be left off the sequences shown.

The chains behind the UniProt entries cited, without tags or fusion partners.
UniProt Q8TDG2: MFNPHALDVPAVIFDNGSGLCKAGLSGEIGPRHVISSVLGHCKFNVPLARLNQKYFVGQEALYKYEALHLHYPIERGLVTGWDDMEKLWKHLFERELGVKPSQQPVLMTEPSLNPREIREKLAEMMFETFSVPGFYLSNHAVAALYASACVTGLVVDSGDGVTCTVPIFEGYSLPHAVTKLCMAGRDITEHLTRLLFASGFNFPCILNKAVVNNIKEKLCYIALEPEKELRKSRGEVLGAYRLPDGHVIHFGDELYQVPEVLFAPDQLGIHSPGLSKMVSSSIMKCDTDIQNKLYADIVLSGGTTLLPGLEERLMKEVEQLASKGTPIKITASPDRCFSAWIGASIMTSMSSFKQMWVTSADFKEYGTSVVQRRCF
UniProt P50990: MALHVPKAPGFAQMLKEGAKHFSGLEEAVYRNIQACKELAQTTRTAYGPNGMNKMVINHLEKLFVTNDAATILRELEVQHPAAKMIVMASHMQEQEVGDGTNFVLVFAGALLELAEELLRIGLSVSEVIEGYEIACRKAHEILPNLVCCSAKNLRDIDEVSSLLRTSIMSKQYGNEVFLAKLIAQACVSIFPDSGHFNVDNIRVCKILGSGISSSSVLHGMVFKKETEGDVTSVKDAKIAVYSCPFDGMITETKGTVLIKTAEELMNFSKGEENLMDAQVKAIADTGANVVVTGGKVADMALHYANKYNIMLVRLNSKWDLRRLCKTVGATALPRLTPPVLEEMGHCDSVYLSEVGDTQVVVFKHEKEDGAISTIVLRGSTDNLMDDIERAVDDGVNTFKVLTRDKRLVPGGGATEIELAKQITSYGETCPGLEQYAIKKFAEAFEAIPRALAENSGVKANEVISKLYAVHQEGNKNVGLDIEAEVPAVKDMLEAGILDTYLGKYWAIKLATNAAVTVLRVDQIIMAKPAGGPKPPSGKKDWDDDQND
UniProt O95816: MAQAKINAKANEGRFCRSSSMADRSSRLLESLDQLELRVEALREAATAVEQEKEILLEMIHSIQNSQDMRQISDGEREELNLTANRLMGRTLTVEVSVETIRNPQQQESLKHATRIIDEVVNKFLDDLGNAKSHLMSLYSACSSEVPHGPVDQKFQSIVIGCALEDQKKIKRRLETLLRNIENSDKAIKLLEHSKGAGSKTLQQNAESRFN
UniProt P11142: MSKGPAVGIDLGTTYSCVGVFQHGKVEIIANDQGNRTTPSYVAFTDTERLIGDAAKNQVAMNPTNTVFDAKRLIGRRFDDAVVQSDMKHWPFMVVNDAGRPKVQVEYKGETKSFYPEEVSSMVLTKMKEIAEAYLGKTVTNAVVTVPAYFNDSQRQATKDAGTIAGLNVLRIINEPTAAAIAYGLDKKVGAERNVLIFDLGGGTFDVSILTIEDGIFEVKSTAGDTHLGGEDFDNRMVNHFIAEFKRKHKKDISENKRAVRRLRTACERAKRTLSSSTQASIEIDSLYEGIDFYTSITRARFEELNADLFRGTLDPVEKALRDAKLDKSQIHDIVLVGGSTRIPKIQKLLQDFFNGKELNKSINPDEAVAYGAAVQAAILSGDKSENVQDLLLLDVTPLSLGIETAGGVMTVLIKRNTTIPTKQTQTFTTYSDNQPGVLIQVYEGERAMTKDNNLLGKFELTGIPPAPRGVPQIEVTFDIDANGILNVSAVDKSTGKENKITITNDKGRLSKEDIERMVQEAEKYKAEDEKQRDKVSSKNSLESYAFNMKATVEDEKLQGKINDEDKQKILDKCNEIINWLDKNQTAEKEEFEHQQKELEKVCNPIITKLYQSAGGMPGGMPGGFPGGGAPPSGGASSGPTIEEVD

T1: EHD4 tagged with V5 (UniProt Q9H223)
T1 sequence: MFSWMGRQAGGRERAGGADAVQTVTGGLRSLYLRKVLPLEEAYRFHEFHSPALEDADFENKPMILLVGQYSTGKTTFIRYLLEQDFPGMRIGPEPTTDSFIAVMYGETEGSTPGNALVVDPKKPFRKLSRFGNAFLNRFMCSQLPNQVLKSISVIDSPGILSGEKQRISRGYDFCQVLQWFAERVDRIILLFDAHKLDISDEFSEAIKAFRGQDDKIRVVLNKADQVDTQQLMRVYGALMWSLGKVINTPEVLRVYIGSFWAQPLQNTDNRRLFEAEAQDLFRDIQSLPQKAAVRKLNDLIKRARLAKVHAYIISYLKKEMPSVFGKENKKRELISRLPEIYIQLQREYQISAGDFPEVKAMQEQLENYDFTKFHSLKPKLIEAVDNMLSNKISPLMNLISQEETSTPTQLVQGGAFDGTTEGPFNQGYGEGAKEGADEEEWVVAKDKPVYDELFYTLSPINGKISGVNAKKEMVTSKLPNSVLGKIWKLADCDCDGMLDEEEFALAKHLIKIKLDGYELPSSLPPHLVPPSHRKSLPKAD

B1: EH domain containing protein 4 (EHD4) (protein, UniProt Q9H223 1-541)
chain: T1 sequence
B2: Septin-2 (protein, UniProt Q15019 1-361)
chain: MSKQQPTQFINPETPGYVGFANLPNQVHRKSVKKGFEFTLMVVGESGLGKSTLINSLFLTDLYPERVIPGAAEKIERTVQIEASTVEIEERGVKLRLTVVDTPGYGDAINCRDCFKTIISYIDEQFERYLHDESGLNRRHIIDNRVHCCFYFISPFGHGLKPLDVAFMKAIHNKVNIVPVIAKADTLTLKERERLKKRILDEIEEHNIKIYHLPDAESDEDEDFKEQTRLLKASIPFSVVGSNQLIEAKGKKVRGRLYPWGVVEVENPEHNDFLKLRTMLITHMQDLQEVTQDLHYENFRSERLKRGGRKVENEDMNKDQILLEKEAELRRMQEMIARMQAQMQMQMQGGDGDGGALGHHV
B3: Septin-9 (protein, UniProt Q9UHD8 1-586)
chain: MKKSYSGGTRTSSGRLRRLGDSSGPALKRSFEVEEVETPNSTPPRRVQTPLLRATVASSTQKFQDLGVKNSEPSARHVDSLSQRSPKASLRRVELSGPKAAEPVSRRTELSIDISSKQVENAGAIGPSRFGLKRAEVLGHKTPEPAPRRTEITIVKPQESAHRRMEPPASKVPEVPTAPATDAAPKRVEIQMPKPAEAPTAPSPAQTLENSEPAPVSQLQSRLEPKPQPPVAEATPRSQEATEAAPSCVGDMADTPRDAGLKQAPASRNEKAPVDFGYVGIDSILEQMRRKAMKQGFEFNIMVVGQSGLGKSTLINTLFKSKISRKSVQPTSEERIPKTIEIKSITHDIEEKGVRMKLTVIDTPGFGDHINNENCWQPIMKFINDQYEKYLQEEVNINRKKRIPDTRVHCCLYFIPATGHSLRPLDIEFMKRLSKVVNIVPVIAKADTLTLEERVHFKQRITADLLSNGIDVYPQKEFDEDSEDRLVNEKFREMIPFAVVGSDHEYQVNGKRILGRKTKWGTIEVENTTHCEFAYLRDLLIRTHMQNIKDITSSIHFEAYRVKRLNEGSSAMANGMEEKEPEAPEM

Target: ARP-T1 (untagged, detected with ARP-T1 antibody) (human (endogenous in hTERT-RPE1)) (UniProt Q8TDG2)
Test: proximity ligation; proximity ligation assays (Supplementary Fig. 1f, g); cells and antibodies not told in the text shown

binding, binds:
B1
B2

Target: T1, EHD4 tagged with V5
Test: co-IP; hTERT-RPE1 cells transfected with EHD4-V5 or V5 vector control; immunoprecipitation with anti-V5 beads, immunoblot for ARP-T1

binding, binds:
ARP-T1 (untagged, detected with ARP-T1 antibody) (from UniProt Q8TDG2 1-376)

Target: Actin-Related Protein-Testis1 (ARP-T1), wild type, tagged with DDK (human) (UniProt Q8TDG2)
Test: co-IP; ARP-T1-DDK from transduced HeLa (Fig. 3a) and hTERT-RPE1 (Fig. 3b) cells precipitated with anti-FLAG M2 affinity gel overnight at 4 °C and 1 h at RT, five washes with TBS; immunoblot with antisera to the co-precipitated proteins

binding, binds:
T-complex protein 1 subunit theta (TCP1 theta) (from UniProt P50990 1-548)
BAG family molecular chaperone regulator 2 (BAG 2) (from UniProt O95816 1-211)
Heat shock cognate 71 kDa protein (from UniProt P11142 1-646)
B1
B3
B2
